{"source": "PubChem BioAssay AID1159578 (Peter MacCallum Cancer Centre, 2015)", "purpose": "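siRNA pools altering how lymphatic endothelial cells close a scratch wound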 (primary screen)", "cell system": "human lymphatic endothelial cells", "reagents": "siRNA pool against human genes, 40 nM", "time to read-out": "48 h after transfection", "measured": "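Cells stained with dye and imaged after a scratch; covered wound area and nuclei counted, duplicates averaged, migration set against mock wells and turned into a robust z-score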", "scale": "migration robust z-score: higher = faster migration into the scratch; nuclei per well: higher = more cells in the well", "call rule": "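Migration changed when robust z exceeds 2 or falls below -2 and mean nuclei number is at least 3300; otherwise not called changed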", "meaning of the calls": "active = migration changed; inactive = no migration change, or too few cells", "note": "This is an unselected part of about 18,000 reagents tested. About 1,030 of them (5.7%) were called active. 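Inactive calls also include pools with fewer than 3300 nuclei, whose migration was not assessed.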 Raw values vary from plate to plate and are shown uncorrected. Entries without a mark were called inactive. Not all columns of the deposit are shown. Reagent sequences are not shown."}
{"Target gene": "GPR39", "migration robust z-score": -1.97, "nuclei per well, duplicate mean": 5418}
{"Target gene": "LRRC23", "migration robust z-score": 0.14, "nuclei per well, duplicate mean": 7238}
{"Target gene": "TP53RK", "migration robust z-score": -1.68, "nuclei per well, duplicate mean": 3545}
{"Target gene": "SLC38A8", "migration robust z-score": 0.34, "nuclei per well, duplicate mean": 5262}
{"Target gene": "ASXL2", "migration robust z-score": 1.37, "nuclei per well, duplicate mean": 6255}
{"Target gene": "PLCD1", "migration robust z-score": 0.44, "nuclei per well, duplicate mean": 4868}
{"Target gene": "COX8A", "migration robust z-score": -0.96, "nuclei per well, duplicate mean": 5822}
{"Target gene": "RAB41", "migration robust z-score": 0.38, "nuclei per well, duplicate mean": 6376}
{"Target gene": "HECTD4", "migration robust z-score": 0.36, "nuclei per well, duplicate mean": 4690}
{"Target gene": "GNB5", "migration robust z-score": 0.44, "nuclei per well, duplicate mean": 5488}
{"Target gene": "PSMA6", "migration robust z-score": -0.42, "nuclei per well, duplicate mean": 5244}
{"Target gene": "CD47", "migration robust z-score": -0.61, "nuclei per well, duplicate mean": 5668}
{"Target gene": "ARHGAP4", "migration robust z-score": -0.2, "nuclei per well, duplicate mean": 6356}
{"Target gene": "DBH", "migration robust z-score": 0.73, "nuclei per well, duplicate mean": 5683}
{"Target gene": "CTRC", "migration robust z-score": -0.24, "nuclei per well, duplicate mean": 5400}
{"Target gene": "PROK1", "migration robust z-score": 0.72, "nuclei per well, duplicate mean": 6408}
{"Target gene": "RNASE6", "migration robust z-score": -0.26, "nuclei per well, duplicate mean": 5834}
{"Target gene": "LINC01588", "migration robust z-score": 0.22, "nuclei per well, duplicate mean": 6718}
{"Target gene": "POLR3GL", "migration robust z-score": -0.24, "nuclei per well, duplicate mean": 4452}
{"Target gene": "KLF14", "migration robust z-score": -0.02, "nuclei per well, duplicate mean": 5088}
{"Target gene": "MYLK4", "migration robust z-score": 0.8, "nuclei per well, duplicate mean": 5142}
